Tags and fusion partners may be left off the protein sequences shown. For part of these data: For at least one entry, the source does not settle the construct or the ends of the probe. For part of these data: Negatives hold for the conditions tested.
Assays:
Assay in all cases: activity in cells
[1] = test system: T1, M12-H6 (muscle-penetrating peptide M12-spacer-hexahistidine) (Artificial); conditions: indirect: luciferase in mouse biceps femoris, complex with vs without chloroquine; 2.7-fold above MB8-luc2; purified recombinant protein; protein details: C-terminal H6; dose not given here
T1 sequence: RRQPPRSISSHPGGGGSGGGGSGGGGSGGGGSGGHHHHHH

CPP3-H6 (Artificial) = test system: T2, CPP3-H6 (Artificial); conditions: 0.7 mM MgCl2, 5 mM Hepes, purified recombinant protein, protein details: C-terminal H6
T2 sequence: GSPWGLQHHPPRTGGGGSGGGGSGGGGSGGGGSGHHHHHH

CPP2-H6 (Artificial) = test system: T3, CPP2-H6 (Artificial); conditions: 2 peptide:1 mRNA, 0.7 mM MgCl2, 5 mM Hepes, purified recombinant protein, protein details: C-terminal H6
T3 sequence: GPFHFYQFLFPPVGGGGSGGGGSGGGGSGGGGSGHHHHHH

CPP1-H6 (Artificial) = test system: T4, CPP1-H6 (Artificial); conditions: indirect: luciferase expression in mouse dermis vs MB11-luc2 alone, 1 peptide:4 mRNA, 0.7 mM MgCl2, 5 mM Hepes, 160 mM NaCl; purified recombinant protein; protein details: C-terminal H6
T4 sequence: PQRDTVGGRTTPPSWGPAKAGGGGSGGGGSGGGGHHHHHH

“GGGAAGCUUAAGUGGUGAGGUAUAUUGGCGCCUUCGUGGAAUGUCAGUGCCUCACCAGCAUGCCUUCCCAAAAAAGUCAGGCCAGAUUAAUGCUGCCACCGGAAGUUGAGUAGACGGUGCUGCCUGCGGCUCAACCCCAGGAGGACUGGGUGACCAAAGCUGCGAGGUGAUCCACGUAAGCCCUCAGAACCGUCUCGGAAGGAGGACCCCACGUGCUUUAGCCUCAAAGCCCAGUGUCAGACCACACUUUAAUGUGCCACUCUGCGGAGAGUGCAGUCUGCGAUAGUGCCCCAGGUGGACUGGGUUAACAAAGGCAAAACAUUACUGGCCGAAGCCGCUUGGAAUAAGGCCGGUGUGCGUUUGUCUAUAUGUUAUUUUCCACCAUAUUGCCGUCUUUUGGCAAUGUGAGGGCCCGGAAACCUGGCCCUGUCUUCUUGACGAGCAUUCCUAGGGGUCUUUCCCCUCUCGCCAAAGGAAUGCAAGGUCUGUUGAAUGUCGUGAAGGAAGCAGUUCCUCUGGAAGCUUCUUGAAGACAAACAACGUCUGUAGCGACCCUUUGCAGGCAGCGGAACCCCCCACCUGGCGACAGGUGCCUCUGCGGCCAAAAGCCACGUGUAUAAGAUACACCUGCAAAGGCGGCACAACCCCAGUGCCACGUUGUGAGUUGGAUAGUUGUGGAAAGAGUCAAAUGGCUCUCCUCAAGCGUAUUCAACAAGGGGCUGAAGGAUGCCCAGAAGGUACCCCAUUGUAUGGGAUCUGAUCUGGGGCCUCGGUGCACAUGCUUUACAUGUGUUUAGUCGAGGUUAAAAAACGUCUAGGCCCCCCGAACCACGGGGACGUGGUUUUCCUUUGAAAAACACGAUGAUAAU [MB11-luc2 mRNA 5'-UTR carrying aptamer A]” gave a functional effect of the aptamer [1] of 31 fold, a functional effect of the aptamer (CPP3-H6 (Artificial); indirect: luciferase expression in mouse dermis vs MB11-luc2 alone, 1 peptide:2 mRNA, 160 mM NaCl) of 9.2 fold and a functional effect of the aptamer (CPP2-H6 (Artificial); indirect: luciferase expression in mouse dermis vs MB11-luc2 alone, 160 mM NaCl) of 10.6 fold. It also gave a functional effect of the aptamer (CPP1-H6 (Artificial)) of 5.4 fold.
With “GGGAAGCUUAAGUGUUCUUUUUGCAGAAGCUCAGAAUUGGUGAGGUAUAUUGGCGCCUUCGUGGAAUGUCAGUGCCUCACCAGCAUGCAAACGCUCAACUUUGGCAGAUCUACC [MB15-luc2 capped mRNA 5'-UTR carrying aptamer A]” the functional effect of the aptamer (CPP2-H6 (Artificial); 5' cap, indirect: luciferase in mouse dermis vs MB15-luc2 alone) was 1.48 fold.
In the case of “GGGAAGCUUAAGCUUCCCAAAAAAGUCAGGCCAGAUUAAUGCUGCCACCGGAAGUUGAGUAGACGGUGCUGCCUGCGGCUCAACCCCAGGAGGACUGGGUGACCAAAGCUGCGAGGUGAUCCACGUAAGCCCUCAGAACCGUCUCGGAAGGAGGACCCCACGUGCUUUAGCCUCAAAGCCCAGUGUCAGACCACACUUUAAUGUGCCACUCUGCGGAGAGUGCAGUCUGCGAUAGUGCCCCAGGUGGACUGGGUUAACAAAGGCAAAACAUUACUGGCCGAAGCCGCUUGGAAUAAGGCCGGUGUGCGUUUGUCUAUAUGUUAUUUUCCACCAUAUUGCCGUCUUUUGGCAAUGUGAGGGCCCGGAAACCUGGCCCUGUCUUCUUGACGAGCAUUCCUAGGGGUCUUUCCCCUCUCGCCAAAGGAAUGCAAGGUCUGUUGAAUGUCGUGAAGGAAGCAGUUCCUCUGGAAGCUUCUUGAAGACAAACAACGUCUGUAGCGACCCUUUGCAGGCAGCGGAACCCCCCACCUGGCGACAGGUGCCUCUGCGGCCAAAAGCCACGUGUAUAAGAUACACCUGCAAAGGCGGCACAACCCCAGUGCCACGUUGUGAGUUGGAUAGUUGUGGAAAGAGUCAAAUGGCUCUCCUCAAGCGUAUUCAACAAGGGGCUGAAGGAUGCCCAGAAGGUACCCCAUUGUAUGGGAUCUGAUCUGGGGCCUCGGUGCACAUGCUUUACAUGUGUUUAGUCGAGGUUAAAAAACGUCUAGGCCCCCCGAACCACGGGGACGUGGUUUUCCUUUGAAAAACACGAUGAUAAU [MB8-luc2 mRNA 5'-UTR (no aptamer A)]”, the “functional effect of the aptamer” value (CPP3-H6 (Artificial); indirect: no significant effect on transfection of mRNA lacking aptamer A) is reported as “not active”.

Source: patent publication US20210214729
